These are yes or no findings as the source states them, for the method shown.
B1: thioredoxin 1 (enzyme, UniProt P10599 1-105)
chain: MVKQIESKTAFQEALDAAGDKLVVVDFSATWCGPCKMIKPFFHSLSEKYSNVIFLEVDVDDCQDVASECEVKCMPTFQFFKKGQKVGEFSGANKEKLEATINELV
B2: mutant TRX1 (C35S) (enzyme, UniProt P10599 1-105)
chain: MVKQIESKTAFQEALDAAGDKLVVVDFSATWCGPSKMIKPFFHSLSEKYSNVIFLEVDVDDCQDVASECEVKCMPTFQFFKKGQKVGEFSGANKEKLEATINELV

Chains of the proteins cited; added tags and fusions are not shown. Lines headed by an entry give the natural chain unless they say otherwise; changes in a name come on top.
UniProt P42858: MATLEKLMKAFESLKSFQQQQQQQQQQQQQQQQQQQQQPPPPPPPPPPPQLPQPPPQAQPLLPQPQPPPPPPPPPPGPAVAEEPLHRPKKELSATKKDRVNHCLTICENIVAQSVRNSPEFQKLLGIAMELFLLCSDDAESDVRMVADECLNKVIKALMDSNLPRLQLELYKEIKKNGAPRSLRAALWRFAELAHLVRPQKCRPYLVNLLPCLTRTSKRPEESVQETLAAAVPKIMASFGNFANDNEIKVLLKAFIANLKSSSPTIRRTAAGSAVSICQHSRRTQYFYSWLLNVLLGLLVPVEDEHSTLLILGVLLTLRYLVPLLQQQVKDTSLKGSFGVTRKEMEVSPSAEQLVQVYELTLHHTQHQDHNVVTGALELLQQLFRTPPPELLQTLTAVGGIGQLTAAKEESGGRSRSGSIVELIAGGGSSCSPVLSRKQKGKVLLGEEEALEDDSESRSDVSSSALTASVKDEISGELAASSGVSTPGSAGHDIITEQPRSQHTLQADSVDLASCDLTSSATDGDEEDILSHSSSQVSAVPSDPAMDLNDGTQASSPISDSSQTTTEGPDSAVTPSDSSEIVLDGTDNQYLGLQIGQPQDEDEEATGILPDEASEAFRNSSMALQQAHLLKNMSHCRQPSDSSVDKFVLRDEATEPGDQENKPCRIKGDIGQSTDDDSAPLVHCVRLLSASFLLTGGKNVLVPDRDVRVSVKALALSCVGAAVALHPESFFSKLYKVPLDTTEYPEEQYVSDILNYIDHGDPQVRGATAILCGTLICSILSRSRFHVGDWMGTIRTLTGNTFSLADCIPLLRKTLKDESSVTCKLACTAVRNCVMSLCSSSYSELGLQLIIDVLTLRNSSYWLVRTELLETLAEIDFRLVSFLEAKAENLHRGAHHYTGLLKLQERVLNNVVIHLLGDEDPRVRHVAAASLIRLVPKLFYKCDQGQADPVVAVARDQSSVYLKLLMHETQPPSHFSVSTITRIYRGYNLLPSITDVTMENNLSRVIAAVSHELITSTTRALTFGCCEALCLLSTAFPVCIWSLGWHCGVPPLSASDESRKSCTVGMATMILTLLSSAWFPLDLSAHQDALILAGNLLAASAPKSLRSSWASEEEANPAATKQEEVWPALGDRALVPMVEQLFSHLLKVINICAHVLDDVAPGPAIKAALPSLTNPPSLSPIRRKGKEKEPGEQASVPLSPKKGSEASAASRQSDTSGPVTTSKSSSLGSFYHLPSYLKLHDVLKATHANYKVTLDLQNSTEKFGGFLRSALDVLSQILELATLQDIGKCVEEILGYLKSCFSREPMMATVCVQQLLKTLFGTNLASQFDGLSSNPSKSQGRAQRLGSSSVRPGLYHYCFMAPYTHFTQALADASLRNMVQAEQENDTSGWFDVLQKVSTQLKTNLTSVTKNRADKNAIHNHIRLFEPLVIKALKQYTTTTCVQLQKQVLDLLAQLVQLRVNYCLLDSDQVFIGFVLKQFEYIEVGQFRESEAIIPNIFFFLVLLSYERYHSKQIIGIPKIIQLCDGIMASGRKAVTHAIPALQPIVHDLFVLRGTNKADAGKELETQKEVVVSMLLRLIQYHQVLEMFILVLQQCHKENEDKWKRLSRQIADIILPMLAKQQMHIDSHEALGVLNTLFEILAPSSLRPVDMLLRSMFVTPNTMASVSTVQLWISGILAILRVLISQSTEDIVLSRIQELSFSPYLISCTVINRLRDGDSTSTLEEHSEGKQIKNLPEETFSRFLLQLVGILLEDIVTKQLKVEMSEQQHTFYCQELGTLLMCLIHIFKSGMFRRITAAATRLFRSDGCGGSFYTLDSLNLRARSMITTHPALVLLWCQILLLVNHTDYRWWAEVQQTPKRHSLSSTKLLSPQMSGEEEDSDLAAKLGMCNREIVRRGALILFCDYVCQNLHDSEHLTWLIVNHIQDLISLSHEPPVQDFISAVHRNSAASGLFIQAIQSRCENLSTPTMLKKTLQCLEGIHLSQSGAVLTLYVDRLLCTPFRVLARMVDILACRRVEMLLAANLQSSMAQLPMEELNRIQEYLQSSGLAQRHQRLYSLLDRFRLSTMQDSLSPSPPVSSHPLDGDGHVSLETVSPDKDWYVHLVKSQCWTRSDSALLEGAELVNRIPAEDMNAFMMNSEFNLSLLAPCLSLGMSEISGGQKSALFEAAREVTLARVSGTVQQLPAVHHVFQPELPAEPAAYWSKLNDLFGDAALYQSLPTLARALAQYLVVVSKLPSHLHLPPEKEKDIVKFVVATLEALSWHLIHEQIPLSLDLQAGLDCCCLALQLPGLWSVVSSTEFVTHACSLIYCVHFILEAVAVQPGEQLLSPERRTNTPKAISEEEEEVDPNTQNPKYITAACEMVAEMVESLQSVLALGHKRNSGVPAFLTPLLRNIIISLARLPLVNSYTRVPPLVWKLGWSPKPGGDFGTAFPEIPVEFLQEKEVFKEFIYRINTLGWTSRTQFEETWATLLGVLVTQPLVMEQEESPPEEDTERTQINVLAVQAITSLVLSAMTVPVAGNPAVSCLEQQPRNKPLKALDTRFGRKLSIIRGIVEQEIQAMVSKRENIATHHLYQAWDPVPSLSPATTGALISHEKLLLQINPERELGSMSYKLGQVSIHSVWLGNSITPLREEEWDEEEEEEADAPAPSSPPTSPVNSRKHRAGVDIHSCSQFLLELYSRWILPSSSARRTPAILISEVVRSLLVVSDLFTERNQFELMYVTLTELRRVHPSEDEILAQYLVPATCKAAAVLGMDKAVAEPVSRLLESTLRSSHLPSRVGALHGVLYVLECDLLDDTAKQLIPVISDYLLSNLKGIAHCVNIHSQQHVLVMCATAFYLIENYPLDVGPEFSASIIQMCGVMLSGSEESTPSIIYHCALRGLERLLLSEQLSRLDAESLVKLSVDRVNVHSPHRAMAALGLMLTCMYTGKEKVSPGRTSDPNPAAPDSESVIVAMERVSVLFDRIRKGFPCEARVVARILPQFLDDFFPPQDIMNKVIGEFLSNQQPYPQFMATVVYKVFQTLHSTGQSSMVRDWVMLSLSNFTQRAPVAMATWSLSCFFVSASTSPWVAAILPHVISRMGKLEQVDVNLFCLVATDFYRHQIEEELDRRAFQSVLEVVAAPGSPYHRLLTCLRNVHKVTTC

Target: N171-40Q mutant huntingtin protein (UniProt P42858)
Assay: trapping of a disulfide-linked heterodimer, non-reducing SDS-PAGE and Western blot; cell-free; purified proteins in 50 mM Tris (pH 7.0), 150 mM NaCl incubated at room temperature for one hour, then 50 mM N-ethylmaleimide to block free thiols; reducing or non-reducing SDS-PAGE; both purified

| Binder | binding |
| --- | --- |
| B1 | no binding |
| B2 | no binding |
